# In PubChem BioAssay AID1347131 (National Center for Advancing Translational Sciences (NCATS), 2019):
# The whole screen tested about 410,000 compounds, of which about 2,000 (0.49%) were called active. The inconclusive results got no clear call from the source; some entries with a clear call stand among them for comparison. The call rests on the fitted dose curve; tested in HEK293 reporter line. A potency beside an inconclusive call is a rough fit, not a confirmed value.
# Assay: qHTS Assay for Foot and Mouth Disease Virus Antivirals: Primary Screen against the MLPCN compound library; further: nearly all actives have a fitted effect of over 55% in size
# Conditions: FMDV antiviral cell-based qHTS; series mostly up to 57.9 µM
# Potency means the concentration at half of the fitted maximal effect.
row,Structure (SMILES),Potency
1,CCN1CCN(C(=O)Cc2c(C)n(C(=O)c3ccc(Cl)cc3)c3ccc(OC)cc23)CC1,"inconclusive: 25.1 µM [inhibitor, partial curve, poor fit]"
2,O=C1COc2ccc(-c3csc(NCCc4ccccc4)n3)cc2N1,"inconclusive: 39.8 µM [inhibitor, partial curve, poor fit]"
3,CCOC(=O)c1cc2cc(-c3c(C(=O)OCC)oc4cc(O)cc(O)c4c3=O)ccc2o1,"inconclusive: 31.6 µM [inhibitor, partial curve, poor fit]"
4,CCOc1ccc(Cl)cc1/C=C1/C(=O)ON=C1C,"inconclusive: 39.8 µM [inhibitor, partial curve, poor fit]"
5,Cn1c(=O)cc(SCC(=O)N2CCN(c3ccccc3)CC2)c2ccccc21,inactive
6,Cc1ccc(C(=O)COC(=O)c2cc(Cl)ccc2O)cc1[N+](=O)[O-],inactive
7,O=C(CN1C(=O)c2ccccc2C1=O)N1CCN(C2c3ccccc3-c3ccccc32)CC1,"inconclusive: 2.51 µM [inhibitor, full curve]"
8,Cc1oc2ccc(O)cc2c1C(=O)c1ccc([N+](=O)[O-])cc1,"inconclusive: 35.5 µM [inhibitor, partial curve, poor fit]"
9,CCC1Oc2ccc(C)cc2N(CC(=O)N(Cc2ccc(C)o2)C2CCCC2)C1=O (stereo unspecified),"inconclusive: 22.4 µM [inhibitor, partial curve, poor fit]"
10,Cc1ccc(Cl)cc1NS(=O)(=O)c1ccc(N2CCCCS2(=O)=O)cc1,"inconclusive: 11.2 µM [inhibitor, partial curve, poor fit]"
11,CN(C(=O)c1cccc(NC(=O)Cc2ccc(NC(=O)C3CCCN(C(=O)CCc4ccccc4)C3)cc2)c1)C1CCC1 (stereo unspecified),"inconclusive: 17.8 µM [inhibitor, partial curve, poor fit]"
12,CCCCNc1c(-c2ccc(SC(C)CC)c(OC)c2)nc2ccc(C)cn12 (stereo unspecified),"inconclusive: 22.4 µM [inhibitor, partial curve, poor fit]"
13,COc1cccc(Nc2c3c(nc4c(-c5ccccc5)c(C)nn24)CCC3)c1,inactive
14,Fc1ccc(CNC(=S)Nc2cccc(C(F)(F)F)c2)cc1,"inconclusive: 39.8 µM [inhibitor, single point]"
15,CCCCC1=CC2=C(c3ccco3)C(=O)C(C)(OC(=O)c3ccc(OC)cc3)C(=O)C2=CN1C1CC1 (stereo unspecified),"inconclusive: 25.1 µM [inhibitor, partial curve, poor fit]"
16,CCc1nc(NCc2ccccn2)c2oc3ccccc3c2n1,"inconclusive: 15.8 µM [inhibitor, partial curve, poor fit]"

# Shown with bars between the fields: two of the compounds above
row | Structure (SMILES) | Potency
3 | CCOC(=O)c1cc2cc(-c3c(C(=O)OCC)oc4cc(O)cc(O)c4c3=O)ccc2o1 | inconclusive: 31.6 µM [inhibitor, partial curve, poor fit]
7 | O=C(CN1C(=O)c2ccccc2C1=O)N1CCN(C2c3ccccc3-c3ccccc32)CC1 | inconclusive: 2.51 µM [inhibitor, full curve]
